Assay results reported in the supplement of paper PMC12889115.
This is one part of the list. These are raw signals, not scaled to a control.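 Primary screen: polymyxin B was added at a level permeabilizing Salmonella outer membranes while sparing inner membranes. DMSO wells, both with and without polymyxin B, established maximum growth. Plate-to-plate variation meant each plate was ranked on its own, and the lowest-OD600 compounds were selected as hits.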

System: Salmonella enterica serovar Typhimurium SL1344
Test: bacterial growth OD600 after 18 h with compound and polymyxin B; higher = more bacterial growth (less inhibition)
Conditions: 50 µM, Mueller-Hinton broth

SMILES	bacterial growth OD600 (polymyxin B 1 µg/mL)	bacterial growth OD600 (polymyxin B 0.75 µg/mL)
CCC(Nc1ccc(-c2nc(COc3ccccc3)no2)cn1)c1ccncc1 (stereo not given)	0.01	
COc1ccc(-c2cc(F)cc3c2OC(CNC(=O)c2cccc(Cn4nc(C)cc4C)c2)C3)nn1 (stereo not given)		0.98
COc1ccccc1C(=O)Nc1ccnn1C1CCN(C(=O)c2ccccn2)CC1	0.944	
OCC1CCCCN1Cc1cn(Cc2ccccc2)nc1-c1ccc2c(c1)OCO2 (stereo not given)		0.91
Cc1oc(-c2cccc(C(F)(F)F)c2)nc1CN(Cc1ccccc1)C[C@@H]1CCC(=O)N1		-0.001
COc1ccc(-c2noc(CN3CCC(C(=O)N4CCCC4)CC3)n2)cc1	0.894	
COc1ccc(CC2(CCC(=O)N3CCCCC3C)CCC(=O)N2)c(F)c1 (stereo not given)		0.802
CC(=O)c1ccccc1C(=O)N1CCCC(Nc2ccc(C(C)C)cc2)C1 (stereo not given)	0.917	
CCCCC1CN(CCNC(=O)Cc2sc(C)nc2C)Cc2ccccc2O1 (stereo not given)		0.825
Cc1ccc2c(CC(=O)N3CCc4c(cnc(C)c4CNC(=O)c4cncs4)C3)cc(=O)oc2c1		0.821
O=C(CCC1CCCN(C(=O)C2CCCCC2)C1)N1CCN(Cc2ccccc2)CC1 (stereo not given)	0.836	
COc1ccccc1N1CCN(C2CCCN(C(=O)CCC(N)=O)C2)CC1 (stereo not given)	1.08	
CC(C)c1nccn1CCCNC(=O)c1ccc(N2CCN(C(C)C)CC2)nc1	1.22	
CC1CN(Cc2ccc3c(c2)OCO3)Cc2cc(Cl)ccc2O1 (stereo not given)		0.095
O=C(NCCc1cnccn1)c1cc(COc2cccc(F)c2)[nH]n1		0.89
CCC(C)CC(=O)N1CCC(C2(Cc3cccc(F)c3)NC(=O)N(CCOC)C2=O)CC1 (stereo not given)		0.889
CCn1cc(C(=O)N2CCCC(CNC(=O)c3cccc4ccccc34)C2)cn1 (stereo not given)	0.88	
COc1ccccc1C(=O)Nc1ccnn1C1CCN(C(=O)C(C)(C)C)CC1	0.85	
CN(CCc1cnn(C)c1)c1nncc(-c2ccccc2F)n1	0.911	
O=C(NCCCc1ccccc1)c1coc(CN2CCN(c3ncccn3)CC2)n1	0.555	

Quoted from the entries so far for reference:
SMILES	bacterial growth OD600 (polymyxin B 1 µg/mL)	bacterial growth OD600 (polymyxin B 0.75 µg/mL)
COc1ccccc1C(=O)Nc1ccnn1C1CCN(C(=O)c2ccccn2)CC1	0.944	
OCC1CCCCN1Cc1cn(Cc2ccccc2)nc1-c1ccc2c(c1)OCO2 (stereo not given)		0.91
